In paper PMC5216127:
Results are given in words; binding and its absence hold for the method and conditions named. In cells and extracts the contact can be indirect. Some entries that bind do so weakly or less than the wild type.

The chains behind the UniProt entries cited, without tags or fusion partners.
UniProt Q15561: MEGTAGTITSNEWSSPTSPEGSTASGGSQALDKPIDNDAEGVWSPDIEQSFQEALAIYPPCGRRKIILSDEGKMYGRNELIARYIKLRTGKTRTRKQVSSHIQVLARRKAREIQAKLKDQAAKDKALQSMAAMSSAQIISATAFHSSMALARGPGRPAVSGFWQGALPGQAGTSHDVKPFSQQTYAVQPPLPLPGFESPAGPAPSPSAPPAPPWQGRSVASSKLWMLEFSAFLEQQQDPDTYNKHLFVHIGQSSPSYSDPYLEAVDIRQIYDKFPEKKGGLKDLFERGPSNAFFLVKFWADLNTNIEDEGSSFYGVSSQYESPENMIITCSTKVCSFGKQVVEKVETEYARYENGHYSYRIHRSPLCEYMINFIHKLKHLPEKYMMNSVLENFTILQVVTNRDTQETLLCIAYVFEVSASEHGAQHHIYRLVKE
UniProt Q9NQB0: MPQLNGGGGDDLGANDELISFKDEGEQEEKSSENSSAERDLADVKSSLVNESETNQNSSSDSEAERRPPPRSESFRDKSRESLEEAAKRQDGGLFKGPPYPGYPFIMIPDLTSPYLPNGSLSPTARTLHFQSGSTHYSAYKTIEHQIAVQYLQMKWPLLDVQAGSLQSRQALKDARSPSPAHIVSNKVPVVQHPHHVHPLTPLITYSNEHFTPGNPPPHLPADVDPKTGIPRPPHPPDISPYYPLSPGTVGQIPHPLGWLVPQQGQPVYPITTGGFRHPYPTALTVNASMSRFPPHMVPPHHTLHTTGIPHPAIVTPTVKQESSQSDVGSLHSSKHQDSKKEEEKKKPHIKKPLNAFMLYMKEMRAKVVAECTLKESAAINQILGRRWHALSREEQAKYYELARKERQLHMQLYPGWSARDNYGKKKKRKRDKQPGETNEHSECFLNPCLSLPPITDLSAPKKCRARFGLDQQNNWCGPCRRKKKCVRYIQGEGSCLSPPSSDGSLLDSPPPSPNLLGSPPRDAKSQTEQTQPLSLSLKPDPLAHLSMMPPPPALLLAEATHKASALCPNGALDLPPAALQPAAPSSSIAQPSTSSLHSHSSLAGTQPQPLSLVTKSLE

Molecular target: TEAD4 (endogenous, HEK293T) (human (endogenous in HEK293T)) (UniProt Q15561)
Assay: co-IP; immunoprecipitation by TEAD4, whole cell extracts prepared with or without DNase I (10 μg/ml), Protein A/G beads

binding: binds
Substance: TCF4 (endogenous, HEK293T) (from UniProt Q9NQB0 1-619)
